According to patent US20180320217A1, “METHODS FOR SAMPLING AND MEASURING ORAL LAVAGE PROTEINS” (The Procter & Gamble Company, priority 2017, published 2018):

B1: Annexin A6 (protein, UniProt P08133 2-673, looked up)
Annexin A6: AKPAQGAKYRGSIHDFPGFDPNQDAEALYTAMKGFGSDKEAILDIITSRSNRQRQEVCQSYKSLYGKDLIADLKYELTGKFERLIVGLMRPPAYCDAKEIKDAISGIGTDEKCLIEILASRTNEQMHQLVAAYKDAYERDLEADIIGDTSGHFQKMLVVLLQGTREEDDVVSEDLVQQDVQDLYEAGELKWGTDEAQFIYILGNRSKQHLRLVFDEYLKTTGKPIEASIRGELSGDFEKLMLAVVKCIRSTPEYFAERLFKAMKGLGTRDNTLIRIMVSRSELDMLDIREIFRTKYEKSLYSMIKNDTSGEYKKTLLKLSGGDDDAAGQFFPEAAQVAYQMWELSAVARVELKGTVRPANDFNPDADAKALRKAMKGLGTDEDTIIDIITHRSNVQRQQIRQTFKSHFGRDLMTDLKSEISGDLARLILGLMMPPAHYDAKQLKKAMEGAGTDEKALIEILATRTNAEIRAINEAYKEDYHKSLEDALSSDTSGHFRRILISLATGHREEGGENLDQAREDAQVAAEILEIADTPSGDKTSLETRFMTILCTRSYPHLRRVFQEFIKMTNYDVEHTIKKEMSGDVRDAFVAIVQSVKNKPLFFADKLYKSMKGAGTDEKTLTRIMVSRSEIDLLNIRREFIEKYDKSLHQAIEGDTSGDFLKALLALCGGED
B2: Testican-1 (protein, UniProt Q08629 22-439, looked up)
Testican-1: RHLDALAGGAGPNHGNFLDNDQWLSTVSQYDRDKYWNRFRDDDYFRNWNPNKPFDQALDPSKDPCLKVKCSPHKVCVTQDYQTALCVSRKHLLPRQKKGNVAQKHWVGPSNLVKCKPCPVAQSAMVCGSDGHSYTSKCKLEFHACSTGKSLATLCDGPCPCLPEPEPPKHKAERSACTDKELRNLASRLKDWFGALHEDANRVIKPTSSNTAQGRFDTSILPICKDSLGWMFNKLDMNYDLLLDPSEINAIYLDKYEPCIKPLFNSCDSFKDGKLSNNEWCYCFQKPGGLPCQNEMNRIQKLSKGKSLLGAFIPRCNEEGYYKATQCHGSTGQCWCVDKYGNELAGSRKQGAVSCEEEQETSGDFGSGGSVVLLDDLEYERELGPKDKEGKLRVHTRAVTEDDEDEDDDKEDEVGYIW
B3: Superoxide dismutase [Mn], mitochondrial (protein, UniProt P04179 25-222, looked up)
Superoxide dismutase [Mn], …: KHSLPDLPYDYGALEPHINAQIMQLHHSKHHAAYVNNLNVTEEKYQEALAKGDVTAQIALQPALKFNGGGHINHSIFWTNLSPNGGGEPKGELLEAIKRDFGSFDKFKEKLTAASVGVQGSGWGWLGFNKERGHLQIAACPNQDPLQGTTGLIPLLGIDVWEHAYYLQYKNVRPDYLKAIWNVINWENVTERYMACKK
B4: SPARC-related modular calcium-binding protein 1 (protein, UniProt Q9H4F8 27-434, looked up)
SPARC-related modular …: HRTTGPRFLISDRDPQCNLHCSRTQPKPICASDGRSYESMCEYQRAKCRDPTLGVVHRGRCKDAGQSKCRLERAQALEQAKKPQEAVFVPECGEDGSFTQVQCHTYTGYCWCVTPDGKPISGSSVQNKTPVCSGSVTDKPLSQGNSGRKDDGSKPTPTMETQPVFDGDEITAPTLWIKHLVIKDSKLNNTNIRNSEKVYSCDQERQSALEEAQQNPREGIVIPECAPGGLYKPVQCHQSTGYCWCVLVDTGRPLPGTSTRYVMPSCESDARAKTTEADDPFKDRELPGCPEGKKMEFITSLLDALTTDMVQAINSAAPTGGGRFSEPDPSHTLEERVVHWYFSQLDSNSSNDINKREMKPFKRYVKKKAKPKKCARRFTDYCDLNKDKVISLPELKGCLGVSKEGRLV
B5: SLAM family member 7 (protein, UniProt Q9NQ25 23-335, looked up)
SLAM family member 7: SGPVKELVGSVGGAVTFPLKSKVKQVDSIVWTFNTTPLVTIQPEGGTIIVTQNRNRERVDFPDGGYSLKLSKLKKNDSGIYYVGIYSSSLQQPSTQEYVLHVYEHLSKPKVTMGLQSNKNGTCVTNLTCCMEHGEEDVIYTWKALGQAANESHNGSILPISWRWGESDMTFICVARNPVSRNFSSPILARKLCEGAADDPDSSMVLLCLLLVPLLLSLFVLGLFLWFLKRERQEEYIEEKKRVDICRETPNICPHSGENTEYDTIPHTNRTILKEDPANTVYSTVEIPKKMENPHSLLTMPDTPRLFAYENVI
B6: Arylsulfatase A (protein, UniProt P15289 19-507, looked up)
Arylsulfatase A: RPPNIVLIFADDLGYGDLGCYGHPSSTTPNLDQLAAGGLRFTDFYVPVSLCTPSRAALLTGRLPVRMGMYPGVLVPSSRGGLPLEEVTVAEVLAARGYLTGMAGKWHLGVGPEGAFLPPHQGFHRFLGIPYSHDQGPCQNLTCFPPATPCDGGCDQGLVPIPLLANLSVEAQPPWLPGLEARYMAFAHDLMADAQRQDRPFFLYYASHHTHYPQFSGQSFAERSGRGPFGDSLMELDAAVGTLMTAIGDLGLLEETLVIFTADNGPETMRMSRGGCSGLLRCGKGTTYEGGVREPALAFWPGHIAPGVTHELASSLDLLPTLAALAGAPLPNVTLDGFDLSPLLLGTGKSPRQSLFFYPSYPDEVRGVFAVRTGKYKAHFFTQGSAHSDTTADPACHASSSLTAHEPPLLYDLSKDPGENYNLLGGVAGATPEVLQALKQLQLLKAQLDAAVTFGPSQVARGEDPALQICCHPGCTPRPACCHCPDPHA
B7: Angiotensinogen (protein, UniProt P01019 25-476, looked up)
Angiotensinogen: DRVYIHPFHLVIHNESTCEQLAKANAGKPKDPTFIPAPIQAKTSPVDEKALQDQLVLVAAKLDTEDKLRAAMVGMLANFLGFRIYGMHSELWGVVHGATVLSPTAVFGTLASLYLGALDHTADRLQAILGVPWKDKNCTSRLDAHKVLSALQAVQGLLVAQGRADSQAQLLLSTVVGVFTAPGLHLKQPFVQGLALYTPVVLPRSLDFTELDVAAEKIDRFMQAVTGWKTGCSLMGASVDSTLAFNTYVHFQGKMKGFSLLAEPQEFWVDNSTSVSVPMLSGMGTFQHWSDIQDNFSVTQVPFTESACLLLIQPHYASDLDKVEGLTFQQNSLNWMKKLSPRTIHLTMPQLVLQGSYDLQDLLAQAELPAILHTELNLQKLSNDRIRVGEVLNSIFFELEADEREPTESTQQLNKPEVLEVTLNRPFLFAVYDQSATALHFLGRVANPLSTA
B8: Sialic acid-binding Ig-like lectin 14 (protein, UniProt Q08ET2 17-396, looked up)
Sialic acid-binding Ig-like …: EKPVYELQVQKSVTVQEGLCVLVPCSFSYPWRSWYSSPPLYVYWFRDGEIPYYAEVVATNNPDRRVKPETQGRFRLLGDVQKKNCSLSIGDARMEDTGSYFFRVERGRDVKYSYQQNKLNLEVTALIEKPDIHFLEPLESGRPTRLSCSLPGSCEAGPPLTFSWTGNALSPLDPETTRSSELTLTPRPEDHGTNLTCQVKRQGAQVTTERTVQLNVSYAPQNLAISIFFRNGTGTALRILSNGMSVPIQEGQSLFLACTVDSNPPASLSWFREGKALNPSQTSMSGTLELPNIGAREGGEFTCRVQHPLGSQHLSFILSVQRSSSSCICVTEKQQGSWPLVLTLIRGALMGAGFLLTYGLTWIYYTRCGGPQQSRAERPG
B9: S-formylglutathione hydrolase (protein, UniProt P10768 2-282, looked up)
S-formylglutathione hydrolase: ALKQISSNKCFGGLQKVFEHDSVELNCKMKFAVYLPPKAETGKCPALYWLSGLTCTEQNFISKSGYHQSASEHGLVVIAPDTSPRGCNIKGEDESWDFGTGAGFYVDATEDPWKTNYRMYSYVTEELPQLINANFPVDPQRMSIFGHSMGGHGALICALKNPGKYKSVSAFAPICNPVLCPWGKKAFSGYLGTDQSKWKAYDATHLVKSYPGSQLDILIDQGKDDQFLLDGQLLPDNFIAACTEKKIPVVFRLQEGYDHSYYFIATFITDHIRHHAKYLNA
B10: T-lymphocyte surface antigen Ly-9 (protein, UniProt Q9HBG7 48-655, looked up)
T-lymphocyte surface antigen …: KDSAPTVVSGILGGSVTLPLNISVDTEIENVIWIGPKNALAFARPKENVTIMVKSYLGRLDITKWSYSLCISNLTLNDAGSYKAQINQRNFEVTTEEEFTLFVYEQLQEPQVTMKSVKVSENFSCNITLMCSVKGAEKSVLYSWTPREPHASESNGGSILTVSRTPCDPDLPYICTAQNPVSQRSSLPVHVGQFCTDPGASRGGTTGETVVGVLGEPVTLPLALPACRDTEKVVWLFNTSIISKEREEAATADPLIKSRDPYKNRVWVSSQDCSLKISQLKIEDAGPYHAYVCSEASSVTSMTHVTLLIYRRLRKPKITWSLRHSEDGICRISLTCSVEDGGNTVMYTWTPLQKEAVVSQGESHLNVSWRSSENHPNLTCTASNPVSRSSHQFLSENICSGPERNTKLWIGLFLMVCLLCVGIFSWCIWKRKGRCSVPAFCSSQAEAPADTPEPTAGHTLYSVLSQGYEKLDTPLRPARQQPTPTSDSSSDSNLTTEEDEDRPEVHKPISGRYEVFDQVTQEGAGHDPAPEGQADYDPVTPYVTEVESVVGENTMYAQVFNLQGKTPVSQKEESSATIYCSIRKPQVVPPPQQNDLEIPESPTYENFT

Test system: proteins in oral lavage
Experiment: Abundance of proteins in human oral lavage (SomaLogic), TABLE 1
Type: in vivo
Settings: for Means (Original Scale) High bleeder BL / Means (Original Scale) High bleeder W4 / Means (Original Scale) Low bleeder BL: abundance in oral lavage; for Means (Original Scale) High bleeder BL: high bleeders (gingivitis); for Means (Original Scale) High bleeder BL / Means (Original Scale) Low bleeder BL: baseline; for Means (Original Scale) High bleeder W4 / Fold Change High bleeder W4 vs High bleeder BL: high bleeders; for Means (Original Scale) High bleeder W4: week 4 of investigative products; for Means (Original Scale) Low bleeder BL: low bleeders (healthy); for Fold Change High bleeder BL vs Low bleeder BL / Fold Change High bleeder W4 vs High bleeder BL: oral lavage
[1] = high bleeders vs low bleeders at baseline
[2] = week 4 of investigative products vs baseline
[3] = week 4 of treatment vs baseline
[4] = high vs low bleeders at baseline

Molecule | Means (Original Scale) High bleeder BL | Means (Original Scale) High bleeder W4 | Means (Original Scale) Low bleeder BL | Fold Change High bleeder BL vs Low bleeder BL [1] | Fold Change High bleeder W4 vs High bleeder BL [2] | Fold Change High bleeder W4 vs High bleeder BL [3] | Fold Change High bleeder BL vs Low bleeder BL [4]
B1 | 7520 | 4233 | 2676 | 3.10 | 0.62 | – | –
B2 | 23537 | 13734 | 3587 | – | – | 0.61 | 6.23
B3 | 25375 | 18580 | 14640 | – | – | 0.72 | 1.86
B4 | 25985 | 17574 | 8240 | – | – | 0.66 | 2.94
B5 | 996 | 712 | 561 | – | – | 0.76 | 1.66
B6 | 5748 | 3387 | 1559 | 4.58 | 0.58 | – | –
B7 | 39831 | 25334 | 13227 | 6.12 | 0.95 | – | –
B8 | 1602 | 996 | 1489 | – | – | 0.70 | 1.43
B9 | 455 | 283 | 122 | – | – | 0.62 | 4.02
B10 | 1717 | 877 | 481 | – | – | 0.55 | 3.27
